Drawing on paper PMC9355967, this text covers binding for six substances.

The chains behind the UniProt entries cited, without tags or fusion partners. Where a name states a change or a piece, a line headed by the entry shows the natural chain unless it says otherwise. Residues count along the entry.
UniProt Q14160: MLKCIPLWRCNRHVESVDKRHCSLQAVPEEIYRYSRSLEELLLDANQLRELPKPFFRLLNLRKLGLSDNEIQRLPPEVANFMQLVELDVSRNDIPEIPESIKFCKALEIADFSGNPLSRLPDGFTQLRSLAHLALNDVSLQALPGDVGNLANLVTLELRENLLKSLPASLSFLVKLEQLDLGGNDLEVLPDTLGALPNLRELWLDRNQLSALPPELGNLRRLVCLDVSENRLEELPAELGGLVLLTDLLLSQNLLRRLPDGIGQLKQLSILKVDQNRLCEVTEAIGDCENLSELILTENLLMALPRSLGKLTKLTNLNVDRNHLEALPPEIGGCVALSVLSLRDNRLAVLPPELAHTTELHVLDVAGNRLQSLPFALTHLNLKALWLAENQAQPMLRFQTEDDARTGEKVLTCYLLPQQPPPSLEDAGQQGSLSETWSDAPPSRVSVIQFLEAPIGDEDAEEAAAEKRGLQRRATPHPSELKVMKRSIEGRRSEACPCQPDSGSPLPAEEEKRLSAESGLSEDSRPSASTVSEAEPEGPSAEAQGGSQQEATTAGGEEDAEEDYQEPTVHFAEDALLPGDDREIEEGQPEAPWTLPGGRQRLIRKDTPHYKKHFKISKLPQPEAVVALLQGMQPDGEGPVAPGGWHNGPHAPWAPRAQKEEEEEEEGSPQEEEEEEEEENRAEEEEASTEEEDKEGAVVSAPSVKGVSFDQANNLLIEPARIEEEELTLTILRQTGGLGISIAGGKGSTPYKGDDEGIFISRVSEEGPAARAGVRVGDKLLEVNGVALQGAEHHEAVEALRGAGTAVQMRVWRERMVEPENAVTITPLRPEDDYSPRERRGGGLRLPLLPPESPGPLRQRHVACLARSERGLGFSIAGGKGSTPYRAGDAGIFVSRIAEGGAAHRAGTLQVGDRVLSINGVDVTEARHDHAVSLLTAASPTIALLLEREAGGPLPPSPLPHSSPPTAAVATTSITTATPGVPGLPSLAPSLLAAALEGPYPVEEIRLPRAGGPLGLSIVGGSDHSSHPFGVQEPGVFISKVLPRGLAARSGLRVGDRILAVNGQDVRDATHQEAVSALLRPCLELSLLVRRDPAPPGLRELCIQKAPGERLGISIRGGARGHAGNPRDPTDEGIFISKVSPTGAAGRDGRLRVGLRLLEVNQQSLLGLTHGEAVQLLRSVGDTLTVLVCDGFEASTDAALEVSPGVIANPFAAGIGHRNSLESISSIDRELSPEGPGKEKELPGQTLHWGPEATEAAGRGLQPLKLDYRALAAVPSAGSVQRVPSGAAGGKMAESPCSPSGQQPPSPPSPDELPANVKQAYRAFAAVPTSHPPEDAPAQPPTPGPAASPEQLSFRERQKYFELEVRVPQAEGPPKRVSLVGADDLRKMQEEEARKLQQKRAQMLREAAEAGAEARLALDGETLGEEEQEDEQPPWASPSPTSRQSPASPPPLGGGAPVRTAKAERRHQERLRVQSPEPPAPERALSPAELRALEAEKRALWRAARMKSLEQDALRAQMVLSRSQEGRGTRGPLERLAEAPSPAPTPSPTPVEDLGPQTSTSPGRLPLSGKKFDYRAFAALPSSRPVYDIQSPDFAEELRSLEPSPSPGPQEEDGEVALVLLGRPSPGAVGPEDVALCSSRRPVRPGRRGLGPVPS
UniProt Q9QZQ1, residues 6-370: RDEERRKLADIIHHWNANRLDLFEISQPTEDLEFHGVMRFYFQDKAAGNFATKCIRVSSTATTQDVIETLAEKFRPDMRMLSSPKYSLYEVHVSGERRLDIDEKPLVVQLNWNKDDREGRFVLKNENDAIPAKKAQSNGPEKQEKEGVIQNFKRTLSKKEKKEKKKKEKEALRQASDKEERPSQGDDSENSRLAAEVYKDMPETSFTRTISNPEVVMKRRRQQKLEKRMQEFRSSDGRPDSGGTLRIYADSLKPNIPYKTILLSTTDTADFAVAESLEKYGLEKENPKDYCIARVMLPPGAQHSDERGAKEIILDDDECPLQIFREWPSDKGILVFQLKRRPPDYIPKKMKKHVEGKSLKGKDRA
UniProt P15056, residues 155-227: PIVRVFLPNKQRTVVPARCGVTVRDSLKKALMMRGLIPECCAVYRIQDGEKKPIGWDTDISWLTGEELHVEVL
UniProt Q96HU8: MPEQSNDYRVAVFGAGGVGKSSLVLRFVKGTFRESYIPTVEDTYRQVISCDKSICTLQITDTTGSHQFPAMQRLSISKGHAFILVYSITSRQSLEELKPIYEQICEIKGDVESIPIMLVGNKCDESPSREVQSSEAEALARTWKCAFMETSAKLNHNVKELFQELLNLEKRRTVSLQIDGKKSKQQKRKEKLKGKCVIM
UniProt P62834: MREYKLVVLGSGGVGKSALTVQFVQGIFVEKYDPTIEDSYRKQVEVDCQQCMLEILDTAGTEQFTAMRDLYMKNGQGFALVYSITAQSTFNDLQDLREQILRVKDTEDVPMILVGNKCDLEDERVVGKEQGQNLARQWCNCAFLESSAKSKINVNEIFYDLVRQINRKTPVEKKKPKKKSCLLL

In assay [1] the target is EGFP-tagged full-length SCRIB (human) (UniProt Q14160). Briefly: co-IP; co-transfected cells; anti-GFP IP, anti-FLAG blot (Fig. 2i, j).
The target of assay [2] is GST-AFDN RA1/2 (dual RA domains, residues 6-370) (mouse) (UniProt Q9QZQ1). Briefly: pull-down; GST-tagged RA/RBD domains purified from bacteria on glutathione beads mixed with lysates of cells expressing GTPases; beads washed 5X; anti-GFP blot; only the target purified.
In assay [3] the target is GST-BRAF RBD (UniProt P15056). The assay is described as above.
The target of assay [4] is GST fusion of the AFDN fragment encompassing the FHA domain (mouse) (UniProt Q9QZQ1). Nature of the assay: pull-down; GST fusions purified from E. coli on glutathione beads mixed with lysates of mammalian cells expressing (or holding endogenous) SCRIB or AFDN; TX100 buffer with 10% glycerol and 1% NP-40; only the target purified.
Assay [5] addresses AFDNΔex9 (AFDN without residues 393-407 of the alternatively spliced exon 9) (mouse) (UniProt Q9QZQ1). Nature of the assay: co-IP; IP of AFDNΔex9 following its co-transfection with SCRIB (Supplementary Fig. 3b); antibodies not told.
The target of assay [6] is GST-AFDN FHA domain construct ending at residue 590 (-ENR) (mouse) (UniProt Q9QZQ1). Nature of the assay: pull-down; GST fusions purified from E. coli on glutathione beads mixed with lysates of mammalian cells expressing (or holding endogenous) SCRIB or AFDN; TX100 buffer with 10% glycerol and 1% NP-40; only the target purified.
Assay [7] addresses GST-AFDN FHA domain construct ending at residue 599 (-PEL) (mouse) (UniProt Q9QZQ1). The assay is described as above.
The target in assay [8] is GST-AFDN FHA domain construct ending at residue 610 (-RES) (mouse) (UniProt Q9QZQ1). Described as above.
Assay [9] concerns the target GST-AFDN FHA domain construct ending at residue 590 (-ENR) (mouse) (UniProt Q9QZQ1). Nature of the assay: pull-down; in vitro mixing: purified SCRIB PDZ1 added at 50 μM to glutathione beads bound to GST-fused AFDN FHA fragments; both purified.

These are yes or no findings as the source states them, for the method shown. For some assays here: A result given as binding can be weak or reduced; the word gives no strength. For some assays here: Binding seen in cells or lysates may run through a third protein.

Consider “AFDNΔFHA (full-length AFDN missing residues 370-600) (from UniProt Q9QZQ1)”, for which the binding result in assay [1] was “no binding”.

Regarding “EGFP-DIRAS2 with activating mutation (from UniProt Q96HU8)”, the binding entry in assay [2] and in assay [3] was “no binding” in each case.

With “EGFP-RAP1A with activating mutation (from UniProt P62834)”, in [2], the binding result is “binds”.

Take “endogenous SCRIB in the lysates of Fig. 2f (from UniProt Q14160 1-1655)”: in assay [4], the binding result was “binds”.

“full-length recombinant SCRIB expressed in mammalian cells (tag not told) (from UniProt Q14160 1-1655)”: the binding result in assay [5], in [4], in [6], in assay [7] and in [8] was “binds” each time.

In the case of “purified SCRIB PDZ1 domain (718-820) (from UniProt Q14160 718-820) (domain or fragment)”, the binding result in assay [9] was “binds”.
